Results from cells or extracts need not show a direct contact.
Target: CD31 (PECAM-1) (UniProt P16284)
Test: binding assay
Details: positions printed as 6 (n in SEQ ID NO: 1) are modified bases, identity not stated in the supplied text; immunocytochemical staining at 600 nM; HUVECs stained, HepG2 and MSCs not stained; protein on the cell surface; protein details: endogenous on HUVECs; label: Cy5; single-stranded DNA

**Q.** Does “TCAGCCGCCAGCCAGTTCGTAGAGGAGGTACGTAATGTCTGGGTATACCCCGATAATTGACCAGAGCACCACAGAG [anti-CD31 aptamer]” bind?
**A.** binds

Source: patent US20230285635
